For this assay, the target named is T1, HPV16 E6 oncoprotein fragment, wild type (…) (HPV16).
T1 sequence: MSCCRSSRTRRETQL
The assay can be described thus: two-hybrid; mating of Y187 (PDZ preys in pACT2-AD, Gal4 AD) with AH109 (E6 baits in pGBT9-BD, Gal4 BD); growth on SC Agar -L-W-H (HIS3 reporter), at least 72 h and up to 1 week at 30 °C or 2 weeks at room temperature.

No constants are given. Whether binding was seen depends on the method and setting. Binding can be weak; no strength is given.

In the case of “USH1C PDZ tandem 1-2 (USH1C_1-2) from PDZome 2.0 (human) (domain or fragment)”, the binding entry is recorded as “binds”.

(Values after paper PMC10456741.)
